# In the supplement of paper PMC8728848:
# This is one part of the list.
# Key:
# Assay in all cases: glycan array binding signal (z-score within array); higher = stronger binding
# Settings in all cases: glycan notation: IUPAC condensed, linker removed
# [1] = target: Neu5Ac(a2-3)Gal(b1-3)[Neu5Ac(a2-6)]GlcNAc(b1-3)[Fuc(a1-3)[Gal(b1-4)]GlcNAc(b1-6)]Gal(b1-4)Glc
# Outline: (§1)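 The Consortium for Functional Glycomics database supplied 3228 glycan arrays, of which those lacking an available protein sequence were dropped. The binding signal, a within-array Z-score, was averaged across arrays of the same protein sequence and across linkers. Negative scores can be read as non-binding.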
# [2] = target: Neu5Ac(a2-3)Gal(b1-3)]Neu5Ac(a2-3)Gal(b1-4)]GlcNAc
# Outline: as §1
# [3] = target: Neu5Ac(a2-3)Gal(b1-4)Glc
# Outline: as §1
# [4] = target: Neu5Ac(a2-3)Gal(b1-4)GlcNAc
# Outline: as §1
# [5] = target: Neu5Ac(a2-3)Gal(b1-4)GlcNAc(b1-2)Man
# Outline: as §1
# [6] = target: Neu5Ac(a2-3)Gal(b1-4)GlcNAc(b1-2)Man(a1-3)[GlcNAc(b1-2)Man(b1-4)GlcNAc(b1-2)Man(a1-6)]Man(b1-4)GlcNAc(b1-4)GlcNAc
# Outline: as §1
# [7] = target: Neu5Ac(a2-3)Gal(b1-4)GlcNAc(b1-2)Man(a1-3)[GlcNAc(b1-4)][Neu5Ac(a2-3)Gal(b1-4)GlcNAc(b1-2)Man(a1-6)]Man(b1-4)GlcNAc(b1-4)GlcNAc
# Outline: as §1
# [8] = target: Neu5Ac(a2-3)Gal(b1-4)GlcNAc(b1-2)Man(a1-3)[Neu5Ac(a2-3)Gal(b1-4)GlcNAc(b1-2)Man(a1-6)]Man(b1-4)GlcNAc(b1-4)GlcNAc
# Outline: as §1
# [9] = target: Neu5Ac(a2-3)Gal(b1-4)GlcNAc(b1-2)Man(a1-3)[Neu5Ac(a2-3)Gal(b1-4)GlcNAc(b1-2)Man(a1-6)]Man(b1-4)GlcNAc(b1-4)[Fuc(a1-6)]GlcNAc
# Outline: as §1
# [10] = target: Neu5Ac(a2-3)Gal(b1-4)GlcNAc(b1-2)Man(a1-3)[Neu5Ac(a2-6)Gal(b1-4)GlcNAc(b1-2)Man(a1-6)]Man(b1-4)GlcNAc(b1-4)GlcNAc
# Outline: as §1
# [11] = target: Neu5Ac(a2-3)Gal(b1-4)GlcNAc(b1-2)[Neu5Ac(a2-3)Gal(b1-4)GlcNAc(b1-4)]Man(a1-3)[GlcNAc(b1-4)][Neu5Ac(a2-3)Gal(b1-4)GlcNAc(b1-2)[Neu5Ac(a2-3)Gal(b1-4)GlcNAc(b1-6)]Man(a1-6)]Man(b1-4)GlcNAc(b1-4)GlcNAc
# Outline: as §1
# [12] = target: Neu5Ac(a2-3)Gal(b1-4)GlcNAc(b1-2)[Neu5Ac(a2-3)Gal(b1-4)GlcNAc(b1-4)]Man(a1-3)[GlcNAc(b1-4)][Neu5Ac(a2-3)Gal(b1-4)GlcNAc(b1-4)Man(a1-6)]Man(b1-4)GlcNAc(b1-4)GlcNAc
# Outline: as §1
# [13] = target: Neu5Ac(a2-3)Gal(b1-4)GlcNAc(b1-2)[Neu5Ac(a2-3)Gal(b1-4)GlcNAc(b1-6)]Man(a1-6)[Neu5Ac(a2-3)Gal(b1-4)GlcNAc(b1-2)Man(a1-3)][GlcNAc(b1-4)]Man(b1-4)GlcNAc(b1-4)GlcNAc
# Outline: as §1
# [14] = target: Neu5Ac(a2-3)Gal(b1-4)GlcNAc(b1-3)Gal
# Outline: as §1
# [15] = target: Neu5Ac(a2-3)Gal(b1-4)GlcNAc(b1-3)Gal(b1-3)GlcNAc
# Outline: as §1
# [16] = target: Neu5Ac(a2-3)Gal(b1-4)GlcNAc(b1-3)Gal(b1-4)GlcNAc
# Outline: as §1
# [17] = target: Neu5Ac(a2-3)Gal(b1-4)GlcNAc(b1-3)Gal(b1-4)GlcNAc(b1-2)Man(a1-3)[Neu5Ac(a2-3)Gal(b1-4)GlcNAc(b1-3)Gal(b1-4)GlcNAc(b1-2)Man(a1-6)]Man(b1-4)GlcNAc(b1-4)GlcNAc
# Outline: as §1
# [18] = target: Neu5Ac(a2-3)Gal(b1-4)GlcNAc(b1-3)Gal(b1-4)GlcNAc(b1-3)Gal(b1-4)GlcNAc
# Outline: as §1
# [19] = target: Neu5Ac(a2-3)Gal(b1-4)GlcNAc(b1-3)Gal(b1-4)GlcNAc(b1-3)Gal(b1-4)GlcNAc(b1-2)Man(a1-3)[Neu5Ac(a2-3)Gal(b1-4)GlcNAc(b1-3)Gal(b1-4)GlcNAc(b1-3)Gal(b1-4)GlcNAc(b1-2)Man(a1-6)]GalNAc
# Outline: as §1
# [20] = target: Neu5Ac(a2-3)Gal(b1-4)GlcNAc(b1-3)Gal(b1-4)GlcNAc(b1-3)GalNAc
# Outline: as §1
# [21] = target: Neu5Ac(a2-3)Gal(b1-4)GlcNAc(b1-3)Gal(b1-4)GlcNAc(b1-3)[Neu5Ac(a2-3)Gal(b1-4)GlcNAc(b1-3)Gal(b1-4)GlcNAc(b1-6)]GalNAc
# Outline: as §1
# [22] = target: Neu5Ac(a2-3)Gal(b1-4)GlcNAc(b1-3)Gal(b1-4)GlcNAc(b1-6)[Gal(b1-3)]GalNAc
# Outline: as §1
# [23] = target: Neu5Ac(a2-3)Gal(b1-4)GlcNAc(b1-3)Gal(b1-4)[Fuc(a1-3)]GlcNAc
# Outline: as §1
# [24] = target: Neu5Ac(a2-3)Gal(b1-4)GlcNAc(b1-3)GalNAc
# Outline: as §1
# [25] = target: Neu5Ac(a2-3)Gal(b1-4)GlcNAc(b1-3)[Neu5Ac(a2-3)Gal(b1-4)GlcNAc(b1-6)]GalNAc
# Outline: as §1
# [26] = target: Neu5Ac(a2-3)Gal(b1-4)GlcNAc(b1-6)GalNAc
# Outline: as §1
# [27] = target: Neu5Ac(a2-3)Gal(b1-4)GlcNAc(b1-6)[Gal(b1-3)]GalNAc
# Outline: as §1
# [28] = target: Neu5Ac(a2-3)Gal(b1-4)GlcNAc(b1-6)[Neu5Ac(a2-3)Gal(b1-3)]GalNAc
# Outline: as §1
# [29] = target: Neu5Ac(a2-3)Gal(b1-4)GlcNAc6S
# Outline: as §1
# [30] = target: Neu5Ac(a2-3)Gal(b1-4)[Fuc(a1-3)]GlcNAc
# Outline: as §1
# [31] = target: Neu5Ac(a2-3)Gal(b1-4)[Fuc(a1-3)]GlcNAc(b1-2)Man
# Outline: as §1
# [32] = target: Neu5Ac(a2-3)Gal(b1-4)[Fuc(a1-3)]GlcNAc(b1-3)Gal
# Outline: as §1
# [33] = target: Neu5Ac(a2-3)Gal(b1-4)[Fuc(a1-3)]GlcNAc(b1-3)Gal(b1-4)GlcNAc
# Outline: as §1
# [34] = target: Neu5Ac(a2-3)Gal(b1-4)[Fuc(a1-3)]GlcNAc(b1-3)Gal(b1-4)[Fuc(a1-3)]GlcNAc(b1-3)Gal(b1-4)[Fuc(a1-3)]GlcNAc
# Outline: as §1
# [35] = target: Neu5Ac(a2-3)Gal(b1-4)[Fuc(a1-3)]GlcNAc(b1-3)GalNAc
# Outline: as §1
# [36] = target: Neu5Ac(a2-3)Gal(b1-4)[Fuc(a1-3)]GlcNAc(b1-6)[Gal(b1-3)]GalNAc
# Outline: as §1
# [37] = target: Neu5Ac(a2-3)Gal(b1-4)[Fuc(a1-3)]GlcNAc(b1-6)[Neu5Ac(a2-3)Gal(b1-3)]GalNAc
# Outline: as §1
# [38] = target: Neu5Ac(a2-3)Gal(b1-4)[Fuc(a1-3)]GlcNAc6S
# Outline: as §1
# [39] = target: Neu5Ac(a2-3)Gal6S(b1-4)GlcNAc
# Outline: as §1
# [40] = target: Neu5Ac(a2-3)Gal6S(b1-4)[Fuc(a1-3)]GlcNAc
# Outline: as §1
# [41] = target: Neu5Ac(a2-3)GalNAc
# Outline: as §1
# [42] = target: Neu5Ac(a2-3)GalNAc(b1-4)GlcNAc
# Outline: as §1
# [43] = target: Neu5Ac(a2-3)[GalNAc(b1-4)]Gal(b1-4)Glc
# Outline: as §1
# [44] = target: Neu5Ac(a2-3)[GalNAc(b1-4)]Gal(b1-4)GlcNAc
# Outline: as §1
# [45] = target: Neu5Ac(a2-3)[GalNAc(b1-4)]Gal(b1-4)GlcNAc(b1-3)GalNAc
# Outline: as §1
binder,measurement,setting,value
GST Gap3 (Streptococcus parasanguinis) (protein) MTKQLISEIYWNEIRKGENYLYGSQIKFQEDLVNFYNPQLASGKPIVTFKSRTNYQGDRHSPDLPILIQGNRYLLEYQIDAVPANSFFLQLDFFNRQAEQIESIVLRNSGESFIFPKDTFTYTLTLMSAGCQSVTYQKFMIYDINDEEKKNHIVENRYLRELLPKDLDLVKNLIEYI,glycan array binding signal (z-score),[1],-0.549
same,glycan array binding signal (z-score),[2],-0.563
same,glycan array binding signal (z-score),[3],-0.413
same,glycan array binding signal (z-score),[4],-0.407
same,glycan array binding signal (z-score),[5],0.863
same,glycan array binding signal (z-score),[6],-0.295
same,glycan array binding signal (z-score),[7],-0.195
same,glycan array binding signal (z-score),[8],0.814
same,glycan array binding signal (z-score),[9],2.2
same,glycan array binding signal (z-score),[10],-0.216
same,glycan array binding signal (z-score),[11],-0.36
same,glycan array binding signal (z-score),[12],0.076
same,glycan array binding signal (z-score),[13],-0.604
same,glycan array binding signal (z-score),[14],-0.438
same,glycan array binding signal (z-score),[15],-0.489
same,glycan array binding signal (z-score),[16],-0.414
same,glycan array binding signal (z-score),[17],-0.47
same,glycan array binding signal (z-score),[18],-0.252
same,glycan array binding signal (z-score),[19],0.599
same,glycan array binding signal (z-score),[20],-0.54
same,glycan array binding signal (z-score),[21],0.22
same,glycan array binding signal (z-score),[22],0.196
same,glycan array binding signal (z-score),[23],-0.478
same,glycan array binding signal (z-score),[24],-0.631
same,glycan array binding signal (z-score),[25],-0.511
same,glycan array binding signal (z-score),[26],-0.38
same,glycan array binding signal (z-score),[27],-0.323
same,glycan array binding signal (z-score),[28],-0.315
same,glycan array binding signal (z-score),[29],0.679
same,glycan array binding signal (z-score),[30],-0.196
same,glycan array binding signal (z-score),[31],-0.236
same,glycan array binding signal (z-score),[32],-0.462
same,glycan array binding signal (z-score),[33],0.582
same,glycan array binding signal (z-score),[34],0.048
same,glycan array binding signal (z-score),[35],1.95
same,glycan array binding signal (z-score),[36],1.24
same,glycan array binding signal (z-score),[37],3.62
same,glycan array binding signal (z-score),[38],-0.239
same,glycan array binding signal (z-score),[39],-0.257
same,glycan array binding signal (z-score),[40],0.06
same,glycan array binding signal (z-score),[41],-0.101
same,glycan array binding signal (z-score),[42],-0.022
same,glycan array binding signal (z-score),[43],1.37
same,glycan array binding signal (z-score),[44],0.149
same,glycan array binding signal (z-score),[45],0.067

# As a short view, part of the list above.
binder,measurement,setting,value
GST Gap3 (Streptococcus parasanguinis) (protein) MTKQLISEIYWNEIRKGENYLYGSQIKFQEDLVNFYNPQLASGKPIVTFKSRTNYQGDRHSPDLPILIQGNRYLLEYQIDAVPANSFFLQLDFFNRQAEQIESIVLRNSGESFIFPKDTFTYTLTLMSAGCQSVTYQKFMIYDINDEEKKNHIVENRYLRELLPKDLDLVKNLIEYI,glycan array binding signal (z-score),[16],-0.414
same,glycan array binding signal (z-score),[17],-0.47
same,glycan array binding signal (z-score),[18],-0.252
